Laboratory results reported in patent US20170022503A1.
These are yes or no findings as the source states them, for the method shown. A result given as binding can be weak or reduced; the word gives no strength. For some of these results: Binding seen in cells or lysates may run through a third protein.

Tests used:
[1] = target: T1, WARS (cytoplasmic tryptophan tRNA synthetase) (human) (UniProt P23381); assay: co-immunoprecipitation in HUVEC cells
T1 sequence (looked up): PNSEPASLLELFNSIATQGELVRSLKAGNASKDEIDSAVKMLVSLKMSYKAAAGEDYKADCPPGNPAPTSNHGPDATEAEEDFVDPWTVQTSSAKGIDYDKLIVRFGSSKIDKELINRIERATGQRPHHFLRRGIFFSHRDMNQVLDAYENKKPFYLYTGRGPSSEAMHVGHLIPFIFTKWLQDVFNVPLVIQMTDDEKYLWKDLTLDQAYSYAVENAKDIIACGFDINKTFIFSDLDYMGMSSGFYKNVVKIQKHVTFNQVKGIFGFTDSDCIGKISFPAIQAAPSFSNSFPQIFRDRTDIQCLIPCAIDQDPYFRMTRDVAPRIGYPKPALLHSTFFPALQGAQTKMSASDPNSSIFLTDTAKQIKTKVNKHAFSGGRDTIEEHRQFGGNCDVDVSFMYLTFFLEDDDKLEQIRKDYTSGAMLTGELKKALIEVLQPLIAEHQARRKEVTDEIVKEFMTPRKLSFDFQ

[2] = target: T1, WARS (cytoplasmic tryptophan tRNA synthetase) (human); assay: flag immunoprecipitation from transfected HUVEC cells, blot for WARS
[3] = target: T1, WARS (cytoplasmic tryptophan tRNA synthetase) (human); assay: co-immunoprecipitation (summary of the experiments)

binding [1]	binding [2]	binding [3]	Substance
binds	binds	binds	flag-tagged wild type WARS2 (human mitochondrial tryptophan tRNA synthetase) (enzyme)
	binds		flag-tagged WARS2(L53F) mutant (human) (enzyme)
